PubChem BioAssay AID1508597 | Cure First, 2020

Test: 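Knock-downs altering ovarian cancer cell survival with or without PARP inhibitor rucaparib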 (primary screen)
Cell system: human ovarian carcinoma lines grown from tumours: OCI-P5x (papillary serous) and OCI-C5x (clear cell)
Reagent: siRNA pool against human genes, 1.25 pmol siRNA per well
Time to read-out: 72 h or 96 h, depending on the cell culture
Conditions: rucaparib 20 µM (about IC30) or vehicle, present until read-out
Detection: 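Luminescent ATP-based viability assay read 72 or 96 h after transfection, depending on culture, given as normalised percent viability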
Scale: viability, normalised: higher = more viable cells remaining
Call rule: 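Active when normalised viability falls below 80 percent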
Meaning of the calls: active = viability under 80%; inactive = viability 80% or more
This is an unselected part of about 2,100 reagents tested. 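Calls flag viability under 80% in either arm, not effects specific to rucaparib; the reference for percent is not stated.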 A reagent listed more than once was tested more than once; the source does not tell the runs apart. Not stated in the record: the 100% reference.

viability, normalised (%) | Outcome | Gene | rucaparib or vehicle | cell line | technical replicate
86 | inactive | PRKAR2B (GeneID 5577) | Rucaparib | OCI-C5x (clear cell) | 1
80.1 | inactive | PRKAR2B (GeneID 5577) | Rucaparib | OCI-C5x (clear cell) | 2
63.2 | active | PRKAR2B (GeneID 5577) | Rucaparib | OCI-C5x (clear cell) | 3
127 | inactive | PRKAR2B (GeneID 5577) | Rucaparib | OCI-P5x (serous) | 1
146 | inactive | PRKAR2B (GeneID 5577) | Rucaparib | OCI-P5x (serous) | 2
148 | inactive | PRKAR2B (GeneID 5577) | Rucaparib | OCI-P5x (serous) | 3
118 | inactive | PRKAR2B (GeneID 5577) | Vehicle | OCI-C5x (clear cell) | 1
93.8 | inactive | PRKAR2B (GeneID 5577) | Vehicle | OCI-C5x (clear cell) | 2
72.5 | active | PRKAR2B (GeneID 5577) | Vehicle | OCI-C5x (clear cell) | 3
146 | inactive | PRKAR2B (GeneID 5577) | Vehicle | OCI-P5x (serous) | 1
94.7 | inactive | PRKAR2B (GeneID 5577) | Vehicle | OCI-P5x (serous) | 2
163 | inactive | PRKAR2B (GeneID 5577) | Vehicle | OCI-P5x (serous) | 3
49 | active | NRBP1 (GeneID 29959) | Rucaparib | OCI-C5x (clear cell) | 1
55.6 | active | NRBP1 (GeneID 29959) | Rucaparib | OCI-C5x (clear cell) | 2
68.5 | active | NRBP1 (GeneID 29959) | Rucaparib | OCI-C5x (clear cell) | 3
68 | active | NRBP1 (GeneID 29959) | Rucaparib | OCI-P5x (serous) | 1
80.6 | inactive | NRBP1 (GeneID 29959) | Rucaparib | OCI-P5x (serous) | 2
79.3 | active | NRBP1 (GeneID 29959) | Rucaparib | OCI-P5x (serous) | 3
59.6 | active | NRBP1 (GeneID 29959) | Vehicle | OCI-C5x (clear cell) | 1
55.1 | active | NRBP1 (GeneID 29959) | Vehicle | OCI-C5x (clear cell) | 2
50.4 | active | NRBP1 (GeneID 29959) | Vehicle | OCI-C5x (clear cell) | 3
63.7 | active | NRBP1 (GeneID 29959) | Vehicle | OCI-P5x (serous) | 1
75.2 | active | NRBP1 (GeneID 29959) | Vehicle | OCI-P5x (serous) | 2
67.4 | active | NRBP1 (GeneID 29959) | Vehicle | OCI-P5x (serous) | 3
57.5 | active | SDC4 (GeneID 6385) | Rucaparib | OCI-C5x (clear cell) | 1
69.1 | active | SDC4 (GeneID 6385) | Rucaparib | OCI-C5x (clear cell) | 2
57.5 | active | SDC4 (GeneID 6385) | Rucaparib | OCI-C5x (clear cell) | 3
108 | inactive | SDC4 (GeneID 6385) | Rucaparib | OCI-P5x (serous) | 1
99.6 | inactive | SDC4 (GeneID 6385) | Rucaparib | OCI-P5x (serous) | 2
111 | inactive | SDC4 (GeneID 6385) | Rucaparib | OCI-P5x (serous) | 3
52.2 | active | SDC4 (GeneID 6385) | Vehicle | OCI-C5x (clear cell) | 1
53.3 | active | SDC4 (GeneID 6385) | Vehicle | OCI-C5x (clear cell) | 2
56.5 | active | SDC4 (GeneID 6385) | Vehicle | OCI-C5x (clear cell) | 3
108 | inactive | SDC4 (GeneID 6385) | Vehicle | OCI-P5x (serous) | 1
97.8 | inactive | SDC4 (GeneID 6385) | Vehicle | OCI-P5x (serous) | 2
105 | inactive | SDC4 (GeneID 6385) | Vehicle | OCI-P5x (serous) | 3
64.9 | active | PDK4 (GeneID 5166) | Rucaparib | OCI-C5x (clear cell) | 1
81.1 | inactive | PDK4 (GeneID 5166) | Rucaparib | OCI-C5x (clear cell) | 2
51.3 | active | PDK4 (GeneID 5166) | Rucaparib | OCI-C5x (clear cell) | 3
65.9 | active | PDK4 (GeneID 5166) | Rucaparib | OCI-P5x (serous) | 1
71.5 | active | PDK4 (GeneID 5166) | Rucaparib | OCI-P5x (serous) | 2
65.7 | active | PDK4 (GeneID 5166) | Rucaparib | OCI-P5x (serous) | 3
64.8 | active | PDK4 (GeneID 5166) | Vehicle | OCI-C5x (clear cell) | 1
57.2 | active | PDK4 (GeneID 5166) | Vehicle | OCI-C5x (clear cell) | 2
51.4 | active | PDK4 (GeneID 5166) | Vehicle | OCI-C5x (clear cell) | 3
82.8 | inactive | PDK4 (GeneID 5166) | Vehicle | OCI-P5x (serous) | 1
69.4 | active | PDK4 (GeneID 5166) | Vehicle | OCI-P5x (serous) | 2
84.1 | inactive | PDK4 (GeneID 5166) | Vehicle | OCI-P5x (serous) | 3
51.7 | active | TDP2 (GeneID 51567) | Rucaparib | OCI-C5x (clear cell) | 1
39.1 | active | TDP2 (GeneID 51567) | Rucaparib | OCI-C5x (clear cell) | 1
46.3 | active | TDP2 (GeneID 51567) | Rucaparib | OCI-C5x (clear cell) | 2
51.1 | active | TDP2 (GeneID 51567) | Rucaparib | OCI-C5x (clear cell) | 2
46.9 | active | TDP2 (GeneID 51567) | Rucaparib | OCI-C5x (clear cell) | 3
40.7 | active | TDP2 (GeneID 51567) | Rucaparib | OCI-C5x (clear cell) | 3
46 | active | TDP2 (GeneID 51567) | Rucaparib | OCI-P5x (serous) | 1
65.4 | active | TDP2 (GeneID 51567) | Rucaparib | OCI-P5x (serous) | 1
43.3 | active | TDP2 (GeneID 51567) | Rucaparib | OCI-P5x (serous) | 2
82.3 | inactive | TDP2 (GeneID 51567) | Rucaparib | OCI-P5x (serous) | 2
50.4 | active | TDP2 (GeneID 51567) | Rucaparib | OCI-P5x (serous) | 3
43.6 | active | TDP2 (GeneID 51567) | Rucaparib | OCI-P5x (serous) | 3
57.9 | active | TDP2 (GeneID 51567) | Vehicle | OCI-C5x (clear cell) | 1
45.7 | active | TDP2 (GeneID 51567) | Vehicle | OCI-C5x (clear cell) | 1
48.4 | active | TDP2 (GeneID 51567) | Vehicle | OCI-C5x (clear cell) | 2
40.6 | active | TDP2 (GeneID 51567) | Vehicle | OCI-C5x (clear cell) | 2
42.7 | active | TDP2 (GeneID 51567) | Vehicle | OCI-C5x (clear cell) | 3
46.3 | active | TDP2 (GeneID 51567) | Vehicle | OCI-C5x (clear cell) | 3
65.4 | active | TDP2 (GeneID 51567) | Vehicle | OCI-P5x (serous) | 1
47 | active | TDP2 (GeneID 51567) | Vehicle | OCI-P5x (serous) | 1
60.5 | active | TDP2 (GeneID 51567) | Vehicle | OCI-P5x (serous) | 2
51.1 | active | TDP2 (GeneID 51567) | Vehicle | OCI-P5x (serous) | 2
62.6 | active | TDP2 (GeneID 51567) | Vehicle | OCI-P5x (serous) | 3
59.6 | active | TDP2 (GeneID 51567) | Vehicle | OCI-P5x (serous) | 3

10 entries already listed, arranged by “viability, normalised (%)”, ascending:
viability, normalised (%) | Outcome | Gene | rucaparib or vehicle | cell line | technical replicate
51.3 | active | PDK4 (GeneID 5166) | Rucaparib | OCI-C5x (clear cell) | 3
51.4 | active | PDK4 (GeneID 5166) | Vehicle | OCI-C5x (clear cell) | 3
57.2 | active | PDK4 (GeneID 5166) | Vehicle | OCI-C5x (clear cell) | 2
64.8 | active | PDK4 (GeneID 5166) | Vehicle | OCI-C5x (clear cell) | 1
65.7 | active | PDK4 (GeneID 5166) | Rucaparib | OCI-P5x (serous) | 3
65.9 | active | PDK4 (GeneID 5166) | Rucaparib | OCI-P5x (serous) | 1
69.4 | active | PDK4 (GeneID 5166) | Vehicle | OCI-P5x (serous) | 2
71.5 | active | PDK4 (GeneID 5166) | Rucaparib | OCI-P5x (serous) | 2
82.8 | inactive | PDK4 (GeneID 5166) | Vehicle | OCI-P5x (serous) | 1
84.1 | inactive | PDK4 (GeneID 5166) | Vehicle | OCI-P5x (serous) | 3
